The values that follow are results of earlier work, collected in article PMC3998711 (Nature chemical biology, 2014).

By Kd is commonly meant the free concentration of one partner at which half of the binding sites on the other are occupied at equilibrium, for simple one-to-one binding.

The data set has as its target BRDT. The conditions noted are these: low affinity interaction; cited from earlier work.

In the case of `CCc1cnn2c(NCc3ccc[n+]([O-])c3)cc(N3CCCC[C@H]3CCO)nc12` [dinaciclib], the Kd is 37 µM.
